Amino acid sequences for entries named in this document (tags omitted). Residues count along the entry.
UniProt A0A8W8INI3, 23-318 limits assumed: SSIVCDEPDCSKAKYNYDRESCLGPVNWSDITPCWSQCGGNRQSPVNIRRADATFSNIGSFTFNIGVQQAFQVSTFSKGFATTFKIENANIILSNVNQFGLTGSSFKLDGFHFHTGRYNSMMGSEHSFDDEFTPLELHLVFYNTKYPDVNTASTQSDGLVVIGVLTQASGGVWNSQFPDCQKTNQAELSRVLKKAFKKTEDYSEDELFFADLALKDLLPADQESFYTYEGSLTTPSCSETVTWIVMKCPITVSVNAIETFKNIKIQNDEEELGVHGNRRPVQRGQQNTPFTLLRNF

According to paper PMC5618409, “Sequence Analysis, Kinetic Constants, and Anion Inhibition Profile of the Nacrein-Like Protein (CgiNAP2X1) from the Pacific Oyster Magallana gigas (Ex-Crassostrea gigas)” (Marine Drugs, 2017):

Biological target: CgiNAP2X1 (Magallana gigas, UniProt A0A8W8INI3)
Test: stopped-flow CO2 hydration assay
Type: biochemical

## CC(=O)Nc1nnc(S(N)(=O)=O)s1 [AAZ, 5-acetamido-1,3,4-thiadiazole-2-sulfonamide]
  Ki: 495 nM
